{"source": "PubChem BioAssay AID248", "about": "(DTP/NCI, 2004)", "test_system": "L1210 leukemia ip in BDF1 mice, survival T/C", "assay": "NCI In Vivo Anticancer Drug Screen. Data for tumor model L1210 Leukemia (intraperitoneal) in B6D2F1 (BDF1) mice", "settings": "T/C endpoint: mean survival time, higher T/C = longer survival", "key": {"[1]": {"settings": "dose: 500.0 mg/kg/injection, schedule: Q01DX Z (oral), vehicle: carboxymethylcellulose (CMC)"}}, "note": "The list does not hold the whole screen: it is rich in T/C values a quarter to a half above the control, in often repeated tests (any T/C) and in doses without a T/C. Further doses and runs are listed elsewhere. T/C gives the treated animals as a percentage of the vehicle group. Some entries give survivors of the animals treated and no T/C: the source holds a T/C of zero for them, seemingly a mark for toxic or unscored doses. Some doses without a T/C left all or most animals alive at the check, yet need not have been tolerated: survival well below the control is almost never listed, so the zero probably covers shortened survival too. Counts of survivors are from the toxicity check (mostly the fifth day) where no day follows; animals may have died later. Schedule codes are those of the source, read here as Q, the interval in days (D) or hours (H), X, the number of doses. Some schedules carry Z or #; the key to these is not given. For survival time, this PubChem deposit counts one and a half times the control or more as active, and values a quarter to a half above the control carry no call in these data; other NCI protocols may use other cut-offs. Some T/C values are followed by the survivors on the day toxicity was checked, most often the fifth; where none is given, no animal had died by that day. Some entries were tested several times; the results are listed from low to high.", "data": [{"smiles": "CC(=O)OCC1OC(n2ncc(=O)[nH]c2=O)C(OC(C)=O)C1OC(C)=O", "note": "(stereo not given)", "values": [{"measurement": "T/C", "setting": "dose: 12.0 mg/kg/injection, schedule: Q01DX Z (oral), vehicle: carboxymethylcellulose (CMC)", "result": "128 % of control"}, {"measurement": "T/C", "setting": "dose: 16.0 mg/kg/injection, schedule: Q03HX024 (ip), vehicle: other", "result": "131 % of control"}, {"measurement": "T/C", "setting": "dose: 16.0 mg/kg/injection, schedule: Q03HX024 (oral), vehicle: other", "result": "127 % of control"}, {"measurement": "T/C", "setting": "dose: 18.0 mg/kg/injection, schedule: Q01DX Z (oral), vehicle: carboxymethylcellulose (CMC)", "result": "132 and 136 % of control"}, {"measurement": "T/C", "setting": "dose: 27.0 mg/kg/injection, schedule: Q01DX Z (oral), vehicle: carboxymethylcellulose (CMC)", "result": "135 % of control"}, {"measurement": "T/C", "setting": "dose: 31.0 mg/kg/injection, schedule: Q01DX Z (ip), vehicle: carboxymethylcellulose (CMC)", "result": "135 % of control"}, {"measurement": "T/C", "setting": "dose: 31.0 mg/kg/injection, schedule: Q01DX Z (sc), vehicle: carboxymethylcellulose (CMC)", "result": "144 % of control"}, {"measurement": "T/C", "setting": "dose: 35.0 mg/kg/injection, schedule: Q01DX Z (im), vehicle: carboxymethylcellulose (CMC)", "result": "125 and 130 % of control"}, {"measurement": "T/C", "setting": "dose: 41.0 mg/kg/injection, schedule: Q01DX Z (oral), vehicle: carboxymethylcellulose (CMC)", "result": "146 % of control"}, {"measurement": "T/C", "setting": "dose: 41.66 mg/kg/injection, schedule: Q#B X Z (ip), vehicle: carboxymethylcellulose (CMC)", "result": "114, 116, 133, 137 % of control"}, {"measurement": "T/C", "setting": "dose: 55.0 mg/kg/injection, schedule: Q01DX Z (im), vehicle: carboxymethylcellulose (CMC)", "result": "136 % of control"}, {"measurement": "survivor count", "setting": "dose: 61.66 mg/kg/injection, schedule: Q#B X Z (ip), vehicle: carboxymethylcellulose (CMC)", "result": "6 of 6"}, {"measurement": "T/C", "setting": "dose: 62.0 mg/kg/injection, schedule: Q01DX Z (ip), vehicle: carboxymethylcellulose (CMC)", "result": "142 % of control"}, {"measurement": "T/C", "setting": "dose: 62.0 mg/kg/injection, schedule: Q01DX Z (oral), vehicle: carboxymethylcellulose (CMC)", "result": "146 % of control"}, {"measurement": "T/C", "setting": "dose: 62.0 mg/kg/injection, schedule: Q01DX Z (sc), vehicle: carboxymethylcellulose (CMC)", "result": "135 % of control"}, {"measurement": "T/C", "setting": "dose: 62.5 mg/kg/injection, schedule: Q01DX009 (ip), vehicle: saline", "result": "130 and 136 % of control"}, {"measurement": "T/C", "setting": "dose: 64.0 mg/kg/injection, schedule: Q01DX009 (ip), vehicle: other", "result": "131 % of control"}, {"measurement": "T/C", "setting": "dose: 64.0 mg/kg/injection, schedule: Q01DX009 (oral), vehicle: other", "result": "131 % of control"}, {"measurement": "T/C", "setting": "dose: 64.0 mg/kg/injection, schedule: Q03HX024 (ip), vehicle: other", "result": "140 % of control"}, {"measurement": "T/C", "setting": "dose: 64.0 mg/kg/injection, schedule: Q03HX024 (oral), vehicle: other", "result": "141 % of control"}, {"measurement": "T/C", "setting": "dose: 83.33 mg/kg/injection, schedule: Q#B X Z (ip), vehicle: carboxymethylcellulose (CMC)", "result": "147 % of control"}, {"measurement": "T/C", "setting": "dose: 125.0 mg/kg/injection, schedule: Q01DX009 (ip), vehicle: saline", "result": "131 and 142 % of control"}, {"measurement": "T/C", "setting": "dose: 125.0 mg/kg/injection, schedule: Q01DX Z (ip), vehicle: carboxymethylcellulose (CMC)", "result": "132 and 138 % of control"}, {"measurement": "T/C", "setting": "dose: 125.0 mg/kg/injection, schedule: Q01DX Z (oral), vehicle: carboxymethylcellulose (CMC)", "result": "138 % of control"}, {"measurement": "T/C", "setting": "dose: 125.0 mg/kg/injection, schedule: Q01DX Z (sc), vehicle: carboxymethylcellulose (CMC)", "result": "124, 127, 135, 137 % of control"}, {"measurement": "T/C", "setting": "dose: 128.0 mg/kg/injection, schedule: Q01DX009 (ip), vehicle: other", "result": "128 % of control"}, {"measurement": "T/C", "setting": "dose: 128.0 mg/kg/injection, schedule: Q01DX009 (oral), vehicle: other", "result": "135 % of control"}, {"measurement": "survivor count", "setting": "dose: 140.0 mg/kg/injection, schedule: Q#B X Z (ip), vehicle: carboxymethylcellulose (CMC)", "result": "6 of 6"}, {"measurement": "T/C", "setting": "dose: 185.0 mg/kg/injection, schedule: Q01DX Z (sc), vehicle: carboxymethylcellulose (CMC)", "result": "135 % of control"}, {"measurement": "T/C", "setting": "dose: 250.0 mg/kg/injection, schedule: Q01DX006 (iv), vehicle: carboxymethylcellulose (CMC)", "result": "125 % of control"}, {"measurement": "T/C", "setting": "dose: 250.0 mg/kg/injection, schedule: Q01DX009 (ip), vehicle: saline", "result": "131 and 145 % of control"}, {"measurement": "T/C", "setting": "dose: 250.0 mg/kg/injection, schedule: Q01DX Z (ip), vehicle: carboxymethylcellulose (CMC)", "result": "125 and 141 % of control"}, {"measurement": "T/C", "setting": "dose: 250.0 mg/kg/injection, schedule: Q01DX Z (sc), vehicle: carboxymethylcellulose (CMC)", "result": "131 % of control"}, {"measurement": "T/C", "setting": "dose: 256.0 mg/kg/injection, schedule: Q01DX009 (ip), vehicle: other", "result": "132 % of control"}, {"measurement": "T/C", "setting": "dose: 256.0 mg/kg/injection, schedule: Q01DX009 (oral), vehicle: other", "result": "134 % of control"}, {"measurement": "T/C", "setting": "dose: 280.0 mg/kg/injection, schedule: Q01DX Z (sc), vehicle: carboxymethylcellulose (CMC)", "result": "132 % of control"}, {"measurement": "T/C", "setting": "dose: 300.0 mg/kg/injection, schedule: Q01DX010 (ip), vehicle: saline", "result": "142 and 145 % of control"}, {"measurement": "T/C", "setting": "dose: 333.33 mg/kg/injection, schedule: Q#B X Z (ip), vehicle: carboxymethylcellulose (CMC)", "result": "127 % of control"}, {"measurement": "T/C", "setting": "dose: 420.0 mg/kg/injection, schedule: Q01DX Z (sc), vehicle: carboxymethylcellulose (CMC)", "result": "142 % of control"}, {"measurement": "T/C", "setting": "dose: 450.0 mg/kg/injection, schedule: Q01DX010 (ip), vehicle: saline", "result": "130 % of control"}, {"measurement": "T/C", "setting": "dose: 500.0 mg/kg/injection, schedule: Q01DX006 (iv), vehicle: carboxymethylcellulose (CMC)", "result": "126 % of control [5 of 6 alive]"}, {"measurement": "T/C", "setting": "dose: 500.0 mg/kg/injection, schedule: Q01DX009 (ip), vehicle: saline", "result": "137 and 140 % of control [5 of 6 alive]"}, {"measurement": "T/C", "setting": "dose: 500.0 mg/kg/injection, schedule: Q01DX Z (ip), vehicle: carboxymethylcellulose (CMC)", "result": "135 and 142 % of control"}, {"measurement": "T/C", "setting": "[1]", "result": "138 % of control"}, {"measurement": "survivor count", "setting": "[1]", "result": "4 of 7"}, {"measurement": "T/C", "setting": "dose: 512.0 mg/kg/injection, schedule: Q01DX009 (ip), vehicle: other", "result": "148 % of control"}, {"measurement": "T/C", "setting": "dose: 512.0 mg/kg/injection, schedule: Q04DX003 (oral), vehicle: other", "result": "126 % of control"}, {"measurement": "T/C", "setting": "dose: 675.0 mg/kg/injection, schedule: Q01DX010 (ip), vehicle: saline", "result": "135 % of control"}, {"measurement": "T/C", "setting": "dose: 1000.0 mg/kg/injection, schedule: Q01DX006 (iv), vehicle: carboxymethylcellulose (CMC)", "result": "125 % of control"}, {"measurement": "T/C", "setting": "dose: 1000.0 mg/kg/injection, schedule: Q01DX009 (ip), vehicle: saline", "result": "131 and 142 % of control"}, {"measurement": "survivor count", "setting": "dose: 1000.0 mg/kg/injection, schedule: Q01DX Z (ip), vehicle: carboxymethylcellulose (CMC)", "result": "3 of 6"}, {"measurement": "survivor count", "setting": "dose: 1000.0 mg/kg/injection, schedule: Q01DX Z (oral), vehicle: carboxymethylcellulose (CMC)", "result": "4 of 7"}, {"measurement": "T/C", "setting": "dose: 1000.0 mg/kg/injection, schedule: Q03DX Z (ip), vehicle: carboxymethylcellulose (CMC)", "result": "136 % of control"}, {"measurement": "T/C", "setting": "dose: 1014.0 mg/kg/injection, schedule: Q01DX010 (ip), vehicle: saline", "result": "135 % of control"}, {"measurement": "survivor count", "setting": "dose: 2000.0 mg/kg/injection, schedule: Q01DX Z (oral), vehicle: carboxymethylcellulose (CMC)", "result": "3 of 7"}]}]}
